Results from publication PMC11161467.
No constants are given. Whether binding was seen depends on the method and setting. In cells and extracts the contact can be indirect. Some entries that bind do so weakly or less than the wild type.

Sequences of proteins named here, by UniProt entry; tags and fusion partners are left off.
UniProt Q64010: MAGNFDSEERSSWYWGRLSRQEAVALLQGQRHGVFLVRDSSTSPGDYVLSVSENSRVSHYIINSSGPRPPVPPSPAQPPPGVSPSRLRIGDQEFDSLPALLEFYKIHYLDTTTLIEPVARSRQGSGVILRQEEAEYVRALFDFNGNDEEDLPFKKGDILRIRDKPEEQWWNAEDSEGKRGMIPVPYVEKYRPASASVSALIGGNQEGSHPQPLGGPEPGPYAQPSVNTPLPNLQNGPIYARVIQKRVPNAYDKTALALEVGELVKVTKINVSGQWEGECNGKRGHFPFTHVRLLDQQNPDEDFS

Target: CrkII (mouse (endogenous in bone marrow macrophage-derived preosteoclasts)) (UniProt Q64010)
Experiment: co-IP; Dynabeads Protein A immunoprecipitation from lysates of WT and Siglec-15-/- prefusion osteoclasts, starved 1 h in alpha-MEM, then 10 ng/mL M-CSF for 0, 1, 5 or 20 min; immunoblot; which antibody precipitated is not told

B1: p130Cas (protein, UniProt Q61140 1-874)
chain: MTVPNVLAKALYDNVAESPDELSFRKGDIMTVLERDTQGLDGWWLCSLHGRQGIVPGNRLKILVGMYDKKPVGPGPGPPATPPQPQPSLPQGVHAPVPPASQYSPMLPTAYQPQSDNVYLVPTPSKTQQGLYQAPGPNPQFQSPPAKQTSTFSKQTPHHSFPSPATDLYQVPPGPGSPAQDIYQVPPSAGIGHDIYQVPPSLDTRGWEGTKPPAKVVVPTRVGQGYVYEAAQTEQDEYDTPRHLLAPGPQDIYDVPPVRGLLPNQYGQEVYDTPPMAVKGPNGRDPLLDVYDVPPSVEKGLLSSSHHSVYDVPPSVSKDVPDGPLLREETYDVPPAFAKPKPFDPTRHPLILAAPPPDSPAAEDVYDVPPPAPDLYDVPPGLRRPGPGTLYDVPRERVLPPEVADGSVVDDGVYAVPPPAEREAPTDGKRLSASSTGSTRSSQSASSLEVVVPGREPLELEVAVESLARLQQGVSTTVAHLLDLVGSASGPGGWRGTSEPQEPPAQDLKAAVAAVHGAVHELLEFARGAVSNATHTSDRTLHAKLSRQLQKMEDVYQTLVVHGQVLDSGRGSPGFTPEDLDRLVACSRAVPEDAKQLASFLHGNASLLFRRTKAPGPGPEGSSSLHPNPTDKASSIQSRPLPSPPKFTSQDSPDGQYENSEGGWMEDYDYVHLQGKEEFEKTQKELLERGNIMRQGKGQLELQQLKQFERLEQEVSRPIDHDLANWTPAQPLVPGRTGGLGPSDRQLLLFYLEQCEANLTTLTDAVDAFFTAVATNQPPKIFVAHSKFVILSAHKLVFIGDTLSRQAKAADVRSQVTHYSNLLCDLLRGIVATTKAAALQYPSPSAAQDMVDRVKELGHSTQQFRRVLGQLAAA
- binding: binds
